In all, about 33,000 sequences were measured (“E-score (-0.5 to 0.5)”: median about -0.0034, highest 2% from about 0.25 on). Some of the results follow.
These sequences were tested against T1, Yap3 (UniProt P38749) (assay: PBM E-score (8-mer binding enrichment) (E-score (-0.5 to 0.5)); higher = stronger / more preferred TF binding). Conditions: protein concentration: 100 nM; construct: GST-full length.
T1 sequence: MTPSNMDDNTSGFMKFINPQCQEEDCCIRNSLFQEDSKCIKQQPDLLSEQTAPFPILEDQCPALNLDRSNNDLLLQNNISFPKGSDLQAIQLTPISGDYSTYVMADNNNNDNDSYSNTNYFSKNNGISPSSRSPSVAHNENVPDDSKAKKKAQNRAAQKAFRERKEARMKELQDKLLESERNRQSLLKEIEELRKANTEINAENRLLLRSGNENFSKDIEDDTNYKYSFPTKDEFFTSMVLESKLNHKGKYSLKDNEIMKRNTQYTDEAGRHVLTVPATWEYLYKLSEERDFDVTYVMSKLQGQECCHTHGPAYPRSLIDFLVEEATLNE
Method in brief: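 Each ungapped eight-base word and its reverse complement, pooled, received an E-score from the Universal PBM Analysis Suite. Underlying scans, normalised with masliner, recorded fluorescent anti-GST bound to GST-tagged yeast transcription factors. These were applied at about 100-200 nM to universal all-10-mer Agilent arrays double-stranded by primer extension.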

Row | Sequence | PBM E-score
1 | ATGATTTA | 0.202
2 | ACACCGAC | -0.143
3 | CATCGGGA | -0.0122
4 | GGCAAATA | 0.158
5 | GGAACACC | -0.0659
6 | AGAACTAA | 0.0761
7 | GACCCTCC | -0.0628
8 | TCAACGCA | 0.128
9 | ATCGACGG | -0.0561
10 | CTTCCCAC | 0.0504
11 | GCAACCAA | 0.0989
12 | CGTAGAGC | 0.0751
13 | CCATTCGA | -0.0112
14 | GACGGTGA | -0.0769
15 | ACCCTAAT | -0.133
16 | ACGGGTTC | -0.142
17 | CTCCGAGC | -0.0623
18 | CATAATTA | 0.316
19 | AAGATGTA | 0.144
20 | TAAGACAA | 0.187
21 | GGCTCTAC | -0.176
22 | GGCTCAAC | -0.164
23 | AGCGGGTA | -0.0987
24 | CGTCTTAC | -0.0666
25 | CCCTTACG | -0.128

Row | Sequence | PBM E-score
26 | CCGAAATC | 0.0889
27 | CATATCTA | 0.189
28 | TGTGCAAA | 0.0609
29 | AGACTTGA | -0.149
30 | GCATGCGC | 0.118
31 | AGTACAAT | 0.209
32 | AACACGCA | 0.0637
33 | CGTCTCCC | -0.0443
34 | CATGCCCC | -0.0993
35 | TGTTGGAA | 0.122
36 | ATCGCAGG | -0.087
37 | ATATTTGC | 0.186
38 | AGCAGATC | -0.0406
39 | GAGCGTGC | -0.0274
40 | GGGCAGAA | 0.0926
41 | ATCGCCTG | -0.258
42 | CGGGCGAG | -0.0755
43 | GCAGAGGC | -0.269
44 | AAATAACG | 0.218
45 | AGACGCAA | 0.0908
46 | CTCGTAGC | 0.0534
47 | ATCTGTTC | 0.0599
48 | GGATGTAA | 0.155
49 | CACTTTAG | -0.0635
50 | ATTGAGAC | 0.0362

Row | Sequence | PBM E-score
51 | GGATTCTA | -0.0259
52 | CATACGGA | 0.0891
53 | CATGAAAG | 0.0754
54 | CCGGGCGC | -0.253
55 | AGCGAGGA | -0.00519
56 | GCGCAAAC | 0.0814
57 | GCTGCAAC | -0.126
58 | ATGTGTTC | 0.0344
59 | AGGGCAAA | 0.0194
60 | CGCACCCG | -0.115
61 | TCGACGAA | 0.0901
62 | TCCGGAAA | 0.0257
63 | GTTAGGAA | 0.0835
64 | GCCAGCAC | -0.146
65 | CGAGCGCA | 0.127
66 | CAACTACC | -0.00416
67 | ACTTAAAC | 0.133
68 | TAGACGCA | -0.122
69 | ATGCCCGC | -0.053
70 | CACATGAG | -0.0704
71 | CTGTCCAC | -0.121
72 | CCACGAGG | 0.0512
73 | AAATATAA | 0.275
74 | ACTACAGC | -0.2
75 | AGCGTCGC | -0.168

Random excerpt: 4 records from the list.
Row | Sequence | PBM E-score
54 | CCGGGCGC | -0.253
69 | ATGCCCGC | -0.053
60 | CGCACCCG | -0.115
61 | TCGACGAA | 0.0901

Continuation:

Row | Sequence | PBM E-score
76 | ATGACACG | 0.118
77 | AAACCGAG | 0.0155
78 | AAGCAGGG | -0.151
79 | AGGACGGA | -0.148
80 | GCATAATA | 0.283
81 | CCGGGCGA | -0.133
82 | AGTGTAAT | 0.169
83 | AAACGGCG | 0.177
84 | CACTAAAC | 0.108
85 | GGTGGGGA | 0.125
86 | AAACTGTA | 0.0968
87 | ACAATTTG | 0.023
88 | CATCTTAC | 0.125
89 | ACAACTAT | 0.127
90 | CCCATGCA | -0.115
91 | TCTATAAA | 0.111
92 | CGGATATC | 0.117
93 | ATAGTCGA | 0.0937
94 | ACACTAGA | 0.0595
95 | AGCATAGG | -0.106
96 | ACGATGGA | 0.0019
97 | AGGGGATG | -0.194
98 | AAGTAGGC | 0.0175
99 | AGATGCCG | -0.0719
100 | GACTAGCC | -0.283

In a second layout: entries from further up.
Row,Sequence,PBM E-score
1,ATGATTTA,0.202
2,ACACCGAC,-0.143
5,GGAACACC,-0.0659
6,AGAACTAA,0.0761
7,GACCCTCC,-0.0628
9,ATCGACGG,-0.0561
10,CTTCCCAC,0.0504
18,CATAATTA,0.316
20,TAAGACAA,0.187
21,GGCTCTAC,-0.176
25,CCCTTACG,-0.128
27,CATATCTA,0.189
29,AGACTTGA,-0.149
33,CGTCTCCC,-0.0443
34,CATGCCCC,-0.0993
36,ATCGCAGG,-0.087
37,ATATTTGC,0.186
38,AGCAGATC,-0.0406
41,ATCGCCTG,-0.258
44,AAATAACG,0.218
48,GGATGTAA,0.155
49,CACTTTAG,-0.0635
51,GGATTCTA,-0.0259
55,AGCGAGGA,-0.00519
56,GCGCAAAC,0.0814
61,TCGACGAA,0.0901
62,TCCGGAAA,0.0257
63,GTTAGGAA,0.0835
67,ACTTAAAC,0.133
72,CCACGAGG,0.0512
74,ACTACAGC,-0.2
75,AGCGTCGC,-0.168
76,ATGACACG,0.118
82,AGTGTAAT,0.169
90,CCCATGCA,-0.115
94,ACACTAGA,0.0595
95,AGCATAGG,-0.106
96,ACGATGGA,0.0019
98,AAGTAGGC,0.0175
99,AGATGCCG,-0.0719
100,GACTAGCC,-0.283

Later entries.

Row | Sequence | PBM E-score
101 | TTAGTAAA | 0.295
102 | ACCGCGAG | -0.0409
103 | CGGAACCA | 0.13
104 | CGGCCCAA | -0.0985
105 | ATTGATGA | -0.00625
106 | ACCACCAT | -0.0237
107 | AATAAGCT | 0.0455
108 | GCTTGTTA | 0.0633
109 | GCCCTTTA | -0.146
110 | CGTCTTGC | -0.012
111 | GATTTAAA | -0.0257
112 | CCAATATA | 0.0353
113 | CATTCCGG | -0.21
114 | CAGGCCCC | -0.261
115 | GCCATTAC | 0.0942
116 | ATCAAGAT | -0.0565
117 | GGCCGATA | -0.12
118 | AGGGCTTC | -0.213
119 | TACTTTAA | 0.105
120 | ACAAGGGG | -0.193
121 | ACCTATCG | 0.146
122 | TTCACGAA | -0.109
123 | ATGGCTTA | 0.0389
124 | AAGCTAGG | -0.00103
125 | CCCCAGTC | -0.334

Row | Sequence | PBM E-score
126 | CAGCAATA | 0.0952
127 | GCTATAGC | -0.159
128 | GGCACCCC | -0.351
129 | AGCCGAGA | -0.121
130 | AACATCTG | -0.088
131 | CTGTGACA | 0.0329
132 | ATAGACGC | 0.105
133 | ATCAGGAA | 0.073
134 | CCGCTGCA | 0.024
135 | AACAGAGC | -0.046
136 | CTGCGAAG | -0.217
137 | TCGGGAGA | -0.0734
138 | AGAATCCG | 0.00149
139 | AATCTTCT | -0.0095
140 | CAAGGAGG | 0.102
141 | CTGTCTTA | 0.071
142 | AGACACGG | 0.0134
143 | CGACTAGC | -0.0475
144 | ATGCCCCA | -0.123
145 | ACATTTTG | 0.171
146 | ACGGTGTG | -0.181
147 | ACCCACAT | -0.011
148 | CCGAATAA | 0.193
149 | CCACAAAG | 0.00297
150 | GTACGCTA | 0.00027

Row | Sequence | PBM E-score
151 | ACAGAAGA | 0.0799
152 | CGAGCCAC | -0.228
153 | CTAAGTTA | 0.105
154 | AAGATCAT | 0.0449
155 | CCTCTGAC | -0.16
156 | CAACAACC | 0.0271
157 | CGCGCAAG | 0.0939
158 | TCCTCAGA | 0.0579
159 | TAAAACAA | 0.0703
160 | GGGGAATA | 0.0481
161 | GATTAATA | 0.367
162 | ACCAGACC | -0.206
163 | CCAACGAC | -0.0578
164 | ATAACGAC | 0.216
165 | GAGAATTA | 0.214
166 | AAGATATT | 0.212
167 | GTATGTTA | 0.137
168 | GATTAGTA | 0.218
169 | CGACTCGC | -0.048
170 | ACCTCCGG | -0.0361
171 | AGAATCCA | -0.104
172 | GATTGGGC | 0.0771

— the supplement of paper PMC3334620
